# Measured values: PubChem BioAssay AID493014 (National Center for Advancing Translational Sciences (NCATS), 2011)
# Screen size: about 340,000 compounds; about 170 (0.05%) were called active. The shares of active, inactive and inconclusive entries below differ from those in the screen. Calls follow the shape of the dose curve; as a rule, active = well fitted inhibition curve with a large enough effect in the signal ratio, with a control signal flat (not every such curve was filed as active); inconclusive = small, poorly fitted or top-dose-only effect, or effect the other way, or a change in a side signal; inactive = flat fitted curve, though single readings scatter; the % refers to the signal ratio. Where the call is inconclusive, the potency comes from a doubtful curve fit.
# Test: qHTS Assay to Find Inhibitors of Chronic Active B-Cell Receptor Signaling;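 as to activity change, negative = inhibition: plate controls were basal doxycycline-induced cells for no effect and cells given 10 µM MG132 for full effect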
# Conditions: ABC-DLBCL IkBa-CBG/CBR reporter, luminescence ratio (green luciferase fused to IkBa over red control in TMD8 lymphoma cells), 4 h; activity change, negative = inhibition: at 46.1 µM (top of the series) unless noted
# Summary of the method: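 TMD8 human ABC-DLBCL cells with doxycycline-inducible IκBα–green luciferase fusion and unfused red luciferase, in 0.5% FBS medium; compounds up to 46 uM, 4 h at 37C. Green/red luminescence ratio, filter-overlap corrected, fitted to concentration-response curves.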
# Potency is read from the fitted curve at half-maximal effect.
SMILES,"activity change, negative = inhibition",Potency
Cc1ccc(NC(=O)c2ccccc2Cl)c(Cl)c1,inconclusive: 8.69%,
CCOC(=O)c1cn(CC#N)c2cc(F)c(F)cc2c1=O,inactive: 3.28%,
Cc1onc(-c2ccccc2)c1C(=O)Nc1ccccc1NC(=O)c1c(-c2ccccc2)noc1C,inactive: -0.859%,
CCOC(=O)c1c(C)n(CC(O)CN(CC)CC)c2cc(Br)c(OC)cc12 (stereo not given),inconclusive: -0.921%,
CCOC(=O)c1sc2nc(CSc3ccccc3)nc(N3CCCN(C)CC3)c2c1C,inactive: -23.1%,
O=C(Nc1ccccc1F)C1COc2ccccc2O1 (stereo not given),inactive: -0.17%,
O=C(CSc1ccc(-c2cccs2)nn1)c1cccs1,,"inconclusive: 25.1 µM [falling, single point]"
O=C(OCC(=O)N1CCc2ccccc21)c1ccccc1,,"inconclusive: 25.1 µM [falling, single point]"
O=C(Oc1ccc(OC(=O)N2CCOCC2)cc1)c1ccccc1,inconclusive: 2.35%,
CC(=O)Nc1nc(-c2ccccc2)nc(-c2ccccc2OC(C)=O)n1,inconclusive: 13.7%,
CCCCOc1cccc(C(=O)Nc2ccc(S(=O)(=O)Nc3cc(C)on3)cc2)c1,,"inconclusive: 15.8 µM [falling, single point]"
CSCC[C@H](NC(=O)COc1ccc(Cl)cc1Cl)c1nc2ccccc2[nH]1,,"inconclusive: 23.1 µM [falling, single point]"
COCCCn1c(-c2cccs2)nc2nc3ccccc3nc21,inconclusive: 0.622%,
CSCCC(NC(=O)c1ccccc1)C(=O)NC1CCCC1 (stereo not given),inactive: 3.35%,
CN(C)c1nc(N)nc(N(c2ccccc2)c2ccccc2)n1,inconclusive: 4.39%,
CC(C)Oc1ccc(CSC(=N)N)cc1,,"inconclusive: 12.6 µM [falling, single point]"
CC[C@]12c3[nH]c4ccccc4c3CCN1C(=O)C(CC(=O)NCc1cccc(C(F)(F)F)c1)C[C@@H]2C(=O)N1CCN(C(=O)c2ccco2)CC1 (stereo not given in full),inconclusive: 0.333%,
c1ccc(CCCc2nc(-c3cccnc3)no2)cc1,inconclusive: 7.39%,
NC(=O)C1CCN(C2CC(=O)N(Cc3ccc(N4CCCC4=O)cc3)C2=O)CC1 (stereo not given),inconclusive: -6.37%,
COc1ccc(CCNC(=O)COc2cc(O)c3c(c2)OC(C)(C)CC3=O)cc1OC,inactive: -23.9%,
CCOc1ccc(-c2cc(C(=O)N/N=C(\C)c3cccnc3)c3ccccc3n2)c(OCC)c1,inconclusive: -0.433%,
FC(F)(F)COc1cc(-c2nnc(SCc3ccccc3)n2Cc2ccco2)cc(OCC(F)(F)F)n1,inactive: 8.28%,
C=CCc1c(C)nc2nc(SCC(=O)Nc3ccc(C)c(C)c3)nn2c1C,inconclusive: -15.3%,
O=C(Nc1ncc2c(n1)-c1ccccc1CC2)c1ccc(Cl)cc1,,"inconclusive: 20 µM [falling, partial curve, poor fit]"
Cc1cccc(C)c1NC(=O)CCCN1CC(C)OC(C)C1 (stereo not given),inconclusive: 18.5%,
OCCCNc1nc(-c2ccc(Cl)cc2)nnc1-c1ccccc1,,"inconclusive: 3.26 µM [falling, partial curve]"
Cc1cccc(C(C)C)c1NC(=O)CN1C(=O)NC(Cc2ccccc2)C1=O (stereo not given),inactive: -1.5%,

SMILES,"activity change, negative = inhibition",Potency
COc1ccc(CCN2C(=O)c3[nH]nc(-c4ccccc4O)c3C2c2cccc(Cl)c2)cc1 (stereo not given),inconclusive: 2.23%,
OCC1(CCCc2ccccc2)CCN(C2CCC2)CC1,inactive: -0.857%,
CC(C)(C)n1nnnc1CN1CCN(C(c2ccccc2)c2ccccc2)CC1,inconclusive: -6.97%,
Cc1ccc2[nH]c(C(=O)N3CCCC(Nc4ccc(F)cc4)C3)cc2c1 (stereo not given),inconclusive: 2.79%,
COC1=C(c2ccccc2)C(=O)c2ccccc2C1=O,inconclusive: -1.82%,
Cc1ccc(S(=O)(=O)Nc2ccncc2)c(C)c1N(C)S(=O)(=O)c1ccc(F)cc1,inconclusive: -2.34%,
COCCNC(=O)c1ccc(Cn2c(=S)[nH]c3cc4c(cc3c2=O)OCO4)cc1,inactive: -2.07%,
O=C(Nc1ccccc1)c1ccc(-c2ccc([N+](=O)[O-])cc2)o1,,"inconclusive: 35.5 µM [falling, single point]"
COC(=O)[C@H](CC(C)C)NC(=O)CCc1nnc(COc2ccccc2)o1,inactive: 8.85%,
CC(C)Sc1nc2sc(-c3ccccc3)cc2c(=O)n1N,,"inconclusive: 22.4 µM [falling, single point]"
COc1cc(-n2nnnc2SCC(=O)N2CCN(c3ccc(F)cc3)CC2)c(OC)cc1Cl,inconclusive: -7.69%,
Cc1ccc(NC(=O)CN2CCc3ccccc3C2)cc1S(=O)(=O)N(C)C,inactive: -1.74%,
Cc1ccccc1N(C(=O)CNC(=O)c1ccco1)C(C(=O)NC1CCCC1)c1ccncc1 (stereo not given),inactive: -8.43%,
O=C(CCCN1C(=O)/C(=C/c2ccccc2)SC1=S)Nc1cccc(O)c1,,"inconclusive: 20 µM [falling, partial curve]"
COc1cc(/C=C/c2nc3ccc([N+](=O)[O-])cc3s2)ccc1OCC(=O)O,inactive: 7.83%,
COc1ccc(C(=O)/C=C\N2CCOCC2)cc1,inconclusive: 3.77%,
COc1cc(C(=O)OCC(=O)c2c(N)n(C)c(=O)n(C)c2=O)ccc1OCCC(C)C,inconclusive: 0.0823%,
O=C(NNC(=O)c1ccc(-n2cncn2)c([N+](=O)[O-])c1)c1cccc(Cl)c1,,"inconclusive: 18.4 µM [falling, partial curve]"
CSc1nc(N)c(C(=O)Nc2ccc([N+](=O)[O-])cc2)s1,inconclusive: 4.59%,
CCCCCCCn1c2c(c(=N)c3ccccc31)CCC2,inconclusive: -6.3%,
Cc1ccc(NC(=O)c2csc(-c3ccccc3)c2C)cc1,inconclusive: 1.01%,
NC(=S)N/N=C\c1c2ccccc2cc2ccccc12,inconclusive: 5.87%,
C/C(=N/NC(=O)c1ccc(O)cc1)c1cccc([N+](=O)[O-])c1,,"inconclusive: 23.1 µM [falling, partial curve]"
CCOC(=O)c1[nH]c2ccc(OC)cc2c1NC(=S)N1CCN(c2ccccc2OC)CC1,,"inconclusive: 23.1 µM [falling, single point]"
CCCCCC(=O)Nc1cccc(C2=NOC3(C2)C[C@@H](C(N)=O)N(C(=O)c2cc([N+](=O)[O-])cc([N+](=O)[O-])c2)C3)c1 (stereo not given in full),inactive: -15.3%,
CCc1c(C(=O)NCCc2cccc(C)c2)[nH]c(C)c1C(C)=O,inconclusive: -4.75%,
NC(=O)NCC(=O)N1CCC(C(O)(c2ccccc2)c2ccccc2)CC1,inconclusive: 1.19%,

# Rewritten with tabs: 6 of the compounds above
SMILES	activity change, negative = inhibition	Potency
CSc1nc(N)c(C(=O)Nc2ccc([N+](=O)[O-])cc2)s1	inconclusive: 4.59%	
CCCCCCCn1c2c(c(=N)c3ccccc31)CCC2	inconclusive: -6.3%	
Cc1ccc(NC(=O)c2csc(-c3ccccc3)c2C)cc1	inconclusive: 1.01%	
NC(=S)N/N=C\c1c2ccccc2cc2ccccc12	inconclusive: 5.87%	
C/C(=N/NC(=O)c1ccc(O)cc1)c1cccc([N+](=O)[O-])c1		inconclusive: 23.1 µM [falling, partial curve]
CCOC(=O)c1[nH]c2ccc(OC)cc2c1NC(=S)N1CCN(c2ccccc2OC)CC1		inconclusive: 23.1 µM [falling, single point]

# (further entries)

SMILES,"activity change, negative = inhibition",Potency
CCCc1cnc(NCCNCC(O)COc2ccc(Cl)c(Cl)c2)nc1 (stereo not given),inconclusive: -0.15%,
CC(C)OC(=O)CC12CN3CN(C1)CC(CC(=O)OC(C)C)(C3)C2=O,,"inconclusive: 6.31 µM [falling, single point]"
Cn1c(CCN2CCN(c3ccc(F)cc3)CC2)nc2cc(NC(=O)c3ccco3)ccc21,inconclusive: 1.22%,
O=C(OCc1cccc(Cl)c1)c1cc([N+](=O)[O-])ccc1N1CCOCC1,inactive: -4.59%,
Cc1cccc(C(=O)Oc2ccc(/C=N/O)cc2)c1,,"inconclusive: 20.6 µM [falling, single point]"
CSc1ncc(CN2CCCC(C(=O)Nc3ccc(-c4ccco4)cc3)C2)cn1 (stereo not given),inactive: -10.3%,
O=C(Nc1ccc2[nH]ncc2c1)c1ccccc1Br,,"inconclusive: 17.8 µM [falling, partial curve]"
COCc1cc(C)nc2sc(C(=O)OC)c(N)c12,inconclusive: 12.6%,
O=C1CCCCC1Sc1nnc(Nc2ccccc2)s1 (stereo not given),inconclusive: 267%,
CCN(Cc1ccc2c(c1)OCO2)C(=O)/C=C/c1cccc(Br)c1,inactive: -14.5%,
Cc1cc(Cl)c2ccc3ccccc3c2n1,inactive: 14.7%,
CNc1nc(OCCNC(=O)Nc2ccccc2)nc(N2CCOCC2)n1,inconclusive: 5.62%,
COc1ccc(CC(=O)Nc2ccc(-c3noc(-c4ccccc4OC)n3)cc2)cc1,,"inconclusive: 0.146 µM [falling, full curve, poor fit]"
Cc1cccc(N2CCN(C3=NC(=O)/C(=C\c4cn[nH]c4-c4ccccc4)S3)CC2)c1,inconclusive: -13.8%,
COc1cc(/C=C(\C#N)C(=O)NCC2CCCO2)cc(OC)c1OC (stereo not given),inconclusive: -5.71%,
Cc1cc(C)n(S(=O)(=O)c2ccc(C(C)(C)C)cc2)n1,inconclusive: 10%,
COc1ccc(C(=O)O/N=C(\N)Cc2ccc([N+](=O)[O-])cc2)c(OC)c1,inconclusive: -7.22%,
CC(C)(C)OC(=O)[C@H](Cc1ccccc1)NC(=O)c1[nH]cnc1C(=O)N[C@@H](Cc1ccccc1)C(=O)OCc1ccccc1,inactive: 19.4%,
O=C(c1ccc(C(F)(F)F)cc1)C1CCCN(C(=O)CCc2cnccn2)C1 (stereo not given),inconclusive: -11.8%,
COc1ccc(C(=O)N(CN2CCCC2=O)c2nccs2)cc1OC,inconclusive: 4.51%,
COc1cc(NC(=O)C2CC(=O)NC3=C2C(=O)CCC3)c(OC)cc1Cl (stereo not given),inconclusive: -0.964%,
CCN(CC)S(=O)(=O)c1cc(NC(=O)COC(=O)c2c(C)noc2C)ccc1C,,"inconclusive: 20.6 µM [falling, partial curve, poor fit]"
O=C(NCCC1=CCCCC1)c1ccc2c(=O)n3nc(Nc4ccccc4)sc3nc2c1,,"inconclusive: 11.2 µM [falling, partial curve]"
CCN(CCCNC(=O)CN1C(=O)COc2ccccc21)c1cccc(C)c1,inconclusive: 19.8%,
Cc1ccc2nc(-c3ccc(NS(=O)(=O)c4ccc(F)c(F)c4)cc3)sc2c1,inconclusive: -1.01%,
CC(C)[C@H](NC(=O)NCc1ccco1)C(=O)O,inconclusive: 0.0338%,
